Publication doi:10.1101/529222
Residue numbers refer to the chain shown, from its start. Results are given in words; binding and its absence hold for the method and conditions named. Binding seen in cells or lysates may run through a third protein. Some entries that bind do so weakly or less than the wild type. For some of these results: Where a sequence is shown, tags or fusion partners need not be part of it.

By UniProt entry, the sequences of proteins in these tests, tags left out.
UniProt Q9C026: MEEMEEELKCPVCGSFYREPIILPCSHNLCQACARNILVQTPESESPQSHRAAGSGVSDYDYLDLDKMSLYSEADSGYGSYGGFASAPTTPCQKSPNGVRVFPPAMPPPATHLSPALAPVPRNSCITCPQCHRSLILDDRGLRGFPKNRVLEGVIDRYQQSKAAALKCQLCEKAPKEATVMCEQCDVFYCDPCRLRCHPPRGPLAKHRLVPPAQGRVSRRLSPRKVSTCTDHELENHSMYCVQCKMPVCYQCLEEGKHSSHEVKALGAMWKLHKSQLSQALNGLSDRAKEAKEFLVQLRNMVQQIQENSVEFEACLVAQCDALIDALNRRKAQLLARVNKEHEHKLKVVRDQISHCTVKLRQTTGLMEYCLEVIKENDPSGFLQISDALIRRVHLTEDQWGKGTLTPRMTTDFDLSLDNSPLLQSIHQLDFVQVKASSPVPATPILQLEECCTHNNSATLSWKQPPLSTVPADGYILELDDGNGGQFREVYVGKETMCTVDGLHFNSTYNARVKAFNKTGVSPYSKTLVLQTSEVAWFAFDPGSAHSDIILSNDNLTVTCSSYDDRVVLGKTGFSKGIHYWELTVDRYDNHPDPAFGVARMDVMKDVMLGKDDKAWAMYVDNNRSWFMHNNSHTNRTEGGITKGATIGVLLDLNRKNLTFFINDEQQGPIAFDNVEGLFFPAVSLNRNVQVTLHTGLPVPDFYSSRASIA
UniProt P50552: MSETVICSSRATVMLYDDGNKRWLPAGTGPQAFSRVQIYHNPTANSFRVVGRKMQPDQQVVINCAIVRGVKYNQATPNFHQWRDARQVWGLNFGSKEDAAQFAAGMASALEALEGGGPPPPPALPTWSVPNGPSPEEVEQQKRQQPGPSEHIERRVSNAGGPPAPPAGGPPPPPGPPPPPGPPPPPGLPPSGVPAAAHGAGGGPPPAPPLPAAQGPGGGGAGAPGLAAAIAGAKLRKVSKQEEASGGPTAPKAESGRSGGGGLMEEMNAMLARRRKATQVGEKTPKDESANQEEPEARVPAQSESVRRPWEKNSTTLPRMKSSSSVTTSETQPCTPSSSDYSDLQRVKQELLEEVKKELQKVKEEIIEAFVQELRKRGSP

Legend:
Assay in all cases: co-IP
[1] = biological target: T1, MycTRIM67ΔRING (mouse) (UniProt Q505D9)
T1 sequence: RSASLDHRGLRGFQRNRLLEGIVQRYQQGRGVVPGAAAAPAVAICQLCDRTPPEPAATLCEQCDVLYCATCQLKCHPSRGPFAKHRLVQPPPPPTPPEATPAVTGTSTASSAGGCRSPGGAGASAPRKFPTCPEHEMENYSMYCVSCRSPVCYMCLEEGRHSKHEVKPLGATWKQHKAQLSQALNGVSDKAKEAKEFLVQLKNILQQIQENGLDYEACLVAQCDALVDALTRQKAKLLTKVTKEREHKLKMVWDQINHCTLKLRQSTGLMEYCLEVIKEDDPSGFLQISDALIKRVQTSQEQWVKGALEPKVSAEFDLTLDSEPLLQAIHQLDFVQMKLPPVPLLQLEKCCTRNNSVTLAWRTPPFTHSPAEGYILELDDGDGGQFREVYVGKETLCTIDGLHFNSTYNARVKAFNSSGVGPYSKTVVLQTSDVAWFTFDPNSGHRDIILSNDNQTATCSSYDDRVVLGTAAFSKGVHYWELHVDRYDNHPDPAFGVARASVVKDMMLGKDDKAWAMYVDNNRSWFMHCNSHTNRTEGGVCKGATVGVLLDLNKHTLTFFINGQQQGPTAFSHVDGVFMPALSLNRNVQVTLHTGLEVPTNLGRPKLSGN

[2] = biological target: T2, Myc-TRIM67 (mouse) (UniProt Q505D9)
T2 sequence: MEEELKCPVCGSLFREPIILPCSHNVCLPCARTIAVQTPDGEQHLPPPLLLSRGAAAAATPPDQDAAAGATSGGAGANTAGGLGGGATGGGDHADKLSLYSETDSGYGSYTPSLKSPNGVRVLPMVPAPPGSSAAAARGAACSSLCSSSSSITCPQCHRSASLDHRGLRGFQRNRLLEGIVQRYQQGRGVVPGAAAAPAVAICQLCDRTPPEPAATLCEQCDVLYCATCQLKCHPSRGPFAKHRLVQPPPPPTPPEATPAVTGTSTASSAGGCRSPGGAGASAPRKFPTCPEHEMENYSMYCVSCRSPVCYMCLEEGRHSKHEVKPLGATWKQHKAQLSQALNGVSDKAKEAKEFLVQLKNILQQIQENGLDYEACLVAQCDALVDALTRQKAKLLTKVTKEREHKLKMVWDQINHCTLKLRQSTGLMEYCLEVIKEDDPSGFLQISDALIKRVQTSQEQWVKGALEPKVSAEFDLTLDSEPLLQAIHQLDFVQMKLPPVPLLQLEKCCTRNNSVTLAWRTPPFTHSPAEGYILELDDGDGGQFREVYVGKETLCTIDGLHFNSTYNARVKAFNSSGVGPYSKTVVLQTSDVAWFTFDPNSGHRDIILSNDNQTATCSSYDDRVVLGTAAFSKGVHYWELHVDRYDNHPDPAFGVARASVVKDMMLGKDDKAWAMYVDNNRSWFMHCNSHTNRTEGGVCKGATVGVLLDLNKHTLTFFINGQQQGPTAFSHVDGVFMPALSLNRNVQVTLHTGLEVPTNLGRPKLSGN

[3] = biological target: T3, Myc-TRIM67 ligase dead (mouse) (UniProt Q505D9)
T3 sequence: T2 sequence with C7A, C10A

[4] = biological target: myc-tagged TRIM9 (human) (UniProt Q9C026)

Measured: binding

GFP-VASP (from UniProt P50552 1-380)
binds: [1] | [2] | [3] | [4]
